Laboratory results from PubChem BioAssay AID2685 (National Center for Advancing Translational Sciences (NCATS), 2010).
This is one part of the list. Further columns of the screen follow, without active or inactive calls. Compounds called inactive in the main read-out are mostly missing here. Words in brackets tell the shape of the fitted curve; partial curves, single points and poor fits give uncertain potencies.

Experiment: qHTS Assay for Lipid Storage Modulators in Drosophila S3 Cells;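 for cell number change: cells counted by Cell Tracker Red CMTPX staining in the red channel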
Settings: BODIPY lipid droplet fluorescence, 18-24 h; for cell number change: measured here: cell count max response, cells fed with added oleic acid
In short: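 Drosophila S3 cells got compounds at several concentrations plus oleic acid (400 uM solution). Laser-scanning cytometry with 488 nm excitation read lipid droplets at 500-530 nm and cells at 575-640 nm. Percent activity was relative to 20 uM Triacsin C.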

[1] = measured here: cell number channel AC50, cells fed with added oleic acid
[2] = measured here: lipid fluorescence (Fed channel) AC50, cells fed with added oleic acid

Compound	cell number change [%]	AC50 [1]	AC50 [2]
COc1cc2[nH]cc(C(=O)NCCc3ccccc3)c(=O)c2cc1OC	-31.8	11.6 µM [falling, partial curve]	–
Cc1ccc(Cl)cc1NC(=S)NN	18.1	–	25.9 µM [rising, single point]
COCCCNc1c2c3c(cccc3[nH]c1=O)C(=O)c1ccccc1-2	-95.9	20.6 µM [falling, single point]	13 µM [falling, partial curve]
Cc1cc(Cl)ccc1OCC(=O)NC1CCCC1	92.7	16.4 µM [rising, partial curve]	23.1 µM [rising, partial curve]
O=C(Cc1coc2ccc3ccccc3c12)NCc1ccccc1	-10.3	–	–
CCCCN(C)C(=O)c1coc(=O)c2ccccc12	37.9	29.1 µM [rising, single point]	–
CCCc1cc(=O)[nH]c(SCC(=O)NC(=O)OCC)n1	-12.2	0.651 µM [falling, single point]	0.58 µM [falling, partial curve, poor fit]
COc1ccc(CCNC(=O)Cc2cc(OC)c(OC)cc2Br)cc1OC	–	–	5.8 µM [rising, full curve]
CCOC(=O)c1oc2ccccc2c1CN1CC(C)OC(C)C1 (configuration not stated)	41	16.4 µM [rising, single point]	–
COc1ccc(-c2nn3c(-c4ccc(F)cc4)nnc3s2)cc1	-4.38	–	0.184 µM [rising, full curve, poor fit]
COc1ccc(CCNC(=O)CCc2cn(C)c3ccccc23)c(OC)c1OC	54.2	–	–
O=c1cc(CSc2nnc3ccccn23)c2c(ccc3ccccc32)o1	-35.6	7.31 µM [falling, partial curve, poor fit]	5.17 µM [rising, partial curve, poor fit]
CN(CCC1CCOCC1)C(=O)C1CCC(=O)N(CCc2ccccc2)C1 (configuration not stated)	2.35	–	9.2 µM [rising, partial curve, poor fit]
CCOC(=O)C1CCCN(c2c(NCCc3ccc(C)cc3)c(=O)c2=O)C1 (configuration not stated)	14.5	4.11 µM [rising, single point]	–
CC(C)CC(C(=O)Oc1ccc2c3c(c(=O)oc2c1)CCC3)N1C(=O)c2ccccc2C1=O (configuration not stated)	-16.7	–	23.1 µM [falling, partial curve]
O=c1cc(CN2CCN(c3ccc(O)cc3)CC2)nc2scc(-c3ccccc3)n12	34.7	5.8 µM [rising, full curve, poor fit]	29.1 µM [rising, single point]
CC(=O)c1cc(C#N)c(N2CCOCC2)nc1C	-3.62	6.51 µM [falling, single point]	–
Cc1cc(S(=O)(=O)N2CCCC(N(C)CCc3ccccn3)C2)c(C)s1 (configuration not stated)	-3.18	–	–
O=C(Nc1ccc2c(c1)OCO2)N1CCN(c2ccccc2Cl)CC1	–	0.58 µM [rising, partial curve, poor fit]	0.146 µM [rising, full curve]
CC1CN(C(=O)c2ccc3c(c2)OCO3)CC(C)O1 (configuration not stated)	9.22	–	6.51 µM [rising, single point]

2 records drawn at random from the list so far:
Compound	cell number change [%]	AC50 [1]	AC50 [2]
Cc1cc(S(=O)(=O)N2CCCC(N(C)CCc3ccccn3)C2)c(C)s1 (configuration not stated)	-3.18	–	–
COCCCNc1c2c3c(cccc3[nH]c1=O)C(=O)c1ccccc1-2	-95.9	20.6 µM [falling, single point]	13 µM [falling, partial curve]

Going on with the list.

Compound	cell number change [%]	AC50 [1]	AC50 [2]
COCC(C)NC(=O)C1CC(=O)N(c2ccc(C)cc2)C1 (configuration not stated)	-1.09	0.82 µM [rising, full curve]	–
CCS(=O)(=O)c1ccc(C(=O)Nc2ccccc2OC)c(Cl)c1Cl	4.71	–	0.092 µM [falling, full curve, poor fit]
CCOC(=O)c1csc(NC(=O)CC2CCCC2)n1	52.1	7.31 µM [rising, partial curve, poor fit]	0.0184 µM [rising, full curve, poor fit]
COc1ccc(N(C(=O)c2cnccn2)C(C(=O)NC2CCCCC2)c2ccc(O)cc2)cc1 (configuration not stated)	11.5	–	–
Cc1ccc(C(=O)NCC(=O)NCCSc2ccc(Br)cc2)cc1	-10.8	–	–
NC(=O)c1ccc(NC(=O)CCC(=O)N2CCN(S(=O)(=O)c3ccc(Cl)cc3)CC2)cc1	-17.6	–	32.6 µM [falling, partial curve]
CCOC(=O)C1CCCN1C(=O)c1ccc(OC)c(Br)c1 (configuration not stated)	-48	4.11 µM [falling, partial curve, poor fit]	–
O=C(O)/C=C/c1cnc2ccccc2n1	-2.52	–	0.58 µM [falling, single point]
O=C(CN1CCCC1)Nc1sc2c(c1C(=O)Nc1ccccc1)CCCC2	13.9	–	29.1 µM [rising, single point]
Cc1nn(-c2ccccc2)c(NC(=O)c2ccccc2)c1Br	-38.1	7.31 µM [falling, single point]	–
C#CCn1c(=NC(=O)CSCC(=O)N2CCOCC2)sc2ccccc21	11.8	–	0.651 µM [rising, full curve]
C#CCOCCOCCOCCNc1nc(N2CCN(C(=O)CCCCCCCCCCNC(=O)Cn3cc(CCCCCN)nn3)CC2)nc(N2CCN(C(=O)CCCCCCCCCCNC(=O)[C@H]([C@@H](C)CC)n3cc(CCCCCN)nn3)CC2)n1	-89.7	16.4 µM [falling, partial curve]	–
CS(=O)(=O)c1ccc(C(=O)NNC(=O)c2ccccc2-n2cccc2)cc1	7.98	–	0.00461 µM [falling, full curve, poor fit]
O=C(NCCCO)c1cc2c([nH]c3ccccc32)c(-c2ccccc2)n1	–	–	29.1 µM [rising, single point]
O=C(CN1CCOCC1)Nc1ccc(Cl)cc1	3.65	–	–
NNC(=O)c1ccccc1OCc1ccccc1	17.6	0.651 µM [rising, full curve, poor fit]	3.66 µM [rising, partial curve, poor fit]
O=C(NC1CCCC1)C(c1ccccc1)N(Cc1ccccc1)C(=O)c1csnn1 (configuration not stated)	-21	–	6.51 µM [falling, single point]
CC(=O)c1sc(N2CCOCC2)nc1-c1ccccc1	-32	–	–
CS/C(=N\S(=O)(=O)c1ccc(N)cc1)NS(=O)(=O)c1cccs1	-26.9	–	18.4 µM [falling, partial curve]
O=C1CNC(=O)c2c(nc3n2CCC3)N1	-14.7	–	0.0651 µM [falling, full curve, poor fit]

Compound	cell number change [%]	AC50 [1]	AC50 [2]
COC(=O)c1cc(OC)c(OC)cc1NC(=O)c1ccoc1C	–	1.46 µM [rising, partial curve]	1.64 µM [rising, partial curve]
COC(=O)c1c(NC(=O)COC(=O)CCc2ccc(S(=O)(=O)N3CCOCC3)cc2)sc2c1CCC2	48.6	0.58 µM [rising, full curve]	29.1 µM [rising, single point]
O=c1cc(-c2ccccc2)[nH]n1-c1nc2ccccc2[nH]1	1.54	–	–
CC(=O)SCC(=O)N=c1sc2cc(F)ccc2n1C	-18.4	–	–
O=Cc1ccc(N2CCCC2)c([N+](=O)[O-])c1	-36.1	–	–
COc1ccccc1N1CCN(c2nccc(C)n2)CC1	4.65	–	0.0058 µM [rising, full curve, poor fit]
CCN(C1CCCCC1)S(=O)(=O)CCNC(=O)c1ccc2c(c1)OCO2	-39.5	16.4 µM [falling, partial curve]	1.46 µM [falling, partial curve]
CCn1c2ccc(CC(=O)O)cc2c2cc(CC(=O)O)ccc21	-7.95	–	0.58 µM [falling, full curve]
Cc1ccc(NC(=O)COC(=O)/C=C/c2cccs2)cc1	5.34	–	29.1 µM [rising, single point]
Cc1ccc(N2C(=O)C(NC(=O)c3ccccc3)(C(F)(F)F)C3=C2CC(C)(C)CC3=O)cc1 (configuration not stated)	-21.7	–	–
CS(=O)(=O)N1CCc2cc(C(=O)N3CCN(c4cccc(Cl)c4)CC3)ccc21	-10.9	–	0.58 µM [rising, single point]
N#CC1=C(N)OC2=C(C(=O)CCC2)C1c1ccccc1 (configuration not stated)	-37.8	29.1 µM [falling, partial curve, poor fit]	0.00461 µM [falling, full curve, poor fit]
Cc1ccc(S(=O)(=O)N2CCCOC2CNC(=O)C(=O)NC2CCCCC2)cc1 (configuration not stated)	-4.15	–	6.51 µM [falling, single point]
CC(C)=CCC/C(C)=C/CC/C(C)=N/O	-12.4	–	6.51 µM [falling, single point]
Cc1c(OCC(=O)N2C[C@H]3C[C@@H](C2)c2cccc(=O)n2C3)ccc2c3c(c(=O)oc12)CCC3	-0.647	–	6.51 µM [falling, single point]
Cc1ccc2nc(N3CCN(C)CC3)c(C#N)cc2c1	-59.6	18.4 µM [falling, single point]	–
Cc1ccc(C(=O)Nc2ccc(NC(=O)c3cccs3)cc2)cc1[N+](=O)[O-]	-57.4	8.2 µM [falling, partial curve]	0.13 µM [falling, single point]
Cn1c(=O)c2c(nc(NCc3cccnc3)n2Cc2cccc(C(F)(F)F)c2)n(C)c1=O	-16.6	–	0.92 µM [rising, full curve]
CCOc1cc(/C=C(\C#N)C(=O)Nc2cccc(C(=O)O)c2)cc(Br)c1OC(=O)c1ccc(OC)cc1	22.7	–	6.51 µM [rising, partial curve]
COc1ccccc1N(C(=O)c1ccco1)C(C(=O)NC1CCCCC1)c1cc(OC)c(OC)c(OC)c1 (configuration not stated)	-12.8	–	–

Structures above with a halogen (16):
Compound	cell number change [%]	AC50 [1]	AC50 [2]
Cc1ccc(Cl)cc1NC(=S)NN	18.1	–	25.9 µM [rising, single point]
Cc1cc(Cl)ccc1OCC(=O)NC1CCCC1	92.7	16.4 µM [rising, partial curve]	23.1 µM [rising, partial curve]
COc1ccc(CCNC(=O)Cc2cc(OC)c(OC)cc2Br)cc1OC	–	–	5.8 µM [rising, full curve]
COc1ccc(-c2nn3c(-c4ccc(F)cc4)nnc3s2)cc1	-4.38	–	0.184 µM [rising, full curve, poor fit]
O=C(Nc1ccc2c(c1)OCO2)N1CCN(c2ccccc2Cl)CC1	–	0.58 µM [rising, partial curve, poor fit]	0.146 µM [rising, full curve]
CCS(=O)(=O)c1ccc(C(=O)Nc2ccccc2OC)c(Cl)c1Cl	4.71	–	0.092 µM [falling, full curve, poor fit]
Cc1ccc(C(=O)NCC(=O)NCCSc2ccc(Br)cc2)cc1	-10.8	–	–
NC(=O)c1ccc(NC(=O)CCC(=O)N2CCN(S(=O)(=O)c3ccc(Cl)cc3)CC2)cc1	-17.6	–	32.6 µM [falling, partial curve]
CCOC(=O)C1CCCN1C(=O)c1ccc(OC)c(Br)c1 (configuration not stated)	-48	4.11 µM [falling, partial curve, poor fit]	–
Cc1nn(-c2ccccc2)c(NC(=O)c2ccccc2)c1Br	-38.1	7.31 µM [falling, single point]	–
O=C(CN1CCOCC1)Nc1ccc(Cl)cc1	3.65	–	–
CC(=O)SCC(=O)N=c1sc2cc(F)ccc2n1C	-18.4	–	–
Cc1ccc(N2C(=O)C(NC(=O)c3ccccc3)(C(F)(F)F)C3=C2CC(C)(C)CC3=O)cc1 (configuration not stated)	-21.7	–	–
CS(=O)(=O)N1CCc2cc(C(=O)N3CCN(c4cccc(Cl)c4)CC3)ccc21	-10.9	–	0.58 µM [rising, single point]
Cn1c(=O)c2c(nc(NCc3cccnc3)n2Cc2cccc(C(F)(F)F)c2)n(C)c1=O	-16.6	–	0.92 µM [rising, full curve]
CCOc1cc(/C=C(\C#N)C(=O)Nc2cccc(C(=O)O)c2)cc(Br)c1OC(=O)c1ccc(OC)cc1	22.7	–	6.51 µM [rising, partial curve]
